Assay [1] has as its target metabotropic glutamate receptor 3 (UniProt Q14832). Description: AlphaScreen or HTRF; HTRF (FRET-based) between APP and mGluR2 or mGluR3 at the surface of transfected cells.
Assay [2] concerns the target metabotropic glutamate receptor 2 (UniProt Q14416). Described as above.

By UniProt entry, the sequences of proteins in these tests, tags left out. Residues count along the entry.
UniProt Q14832, residues 23-879: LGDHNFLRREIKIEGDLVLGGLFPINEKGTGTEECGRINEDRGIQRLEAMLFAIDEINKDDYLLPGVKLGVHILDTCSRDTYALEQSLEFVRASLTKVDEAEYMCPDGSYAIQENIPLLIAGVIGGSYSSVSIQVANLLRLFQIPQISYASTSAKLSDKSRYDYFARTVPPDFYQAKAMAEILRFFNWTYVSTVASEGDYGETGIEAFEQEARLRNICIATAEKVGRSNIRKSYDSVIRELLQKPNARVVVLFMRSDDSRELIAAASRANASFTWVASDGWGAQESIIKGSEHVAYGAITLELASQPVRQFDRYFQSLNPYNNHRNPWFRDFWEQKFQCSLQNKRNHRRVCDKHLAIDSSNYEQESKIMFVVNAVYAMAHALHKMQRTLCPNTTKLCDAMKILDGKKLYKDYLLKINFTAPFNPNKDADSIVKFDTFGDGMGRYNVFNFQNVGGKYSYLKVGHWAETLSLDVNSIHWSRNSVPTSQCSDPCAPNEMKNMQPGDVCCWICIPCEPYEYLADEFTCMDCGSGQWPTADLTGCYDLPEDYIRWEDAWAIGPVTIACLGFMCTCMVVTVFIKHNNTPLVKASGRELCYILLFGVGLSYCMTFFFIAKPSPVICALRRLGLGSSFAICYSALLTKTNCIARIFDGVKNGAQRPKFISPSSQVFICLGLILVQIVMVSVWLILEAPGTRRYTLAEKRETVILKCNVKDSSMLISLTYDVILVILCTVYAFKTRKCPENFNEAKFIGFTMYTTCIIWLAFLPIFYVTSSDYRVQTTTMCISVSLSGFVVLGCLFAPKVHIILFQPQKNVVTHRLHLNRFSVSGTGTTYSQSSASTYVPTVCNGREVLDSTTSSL
UniProt Q14416, residues 19-872: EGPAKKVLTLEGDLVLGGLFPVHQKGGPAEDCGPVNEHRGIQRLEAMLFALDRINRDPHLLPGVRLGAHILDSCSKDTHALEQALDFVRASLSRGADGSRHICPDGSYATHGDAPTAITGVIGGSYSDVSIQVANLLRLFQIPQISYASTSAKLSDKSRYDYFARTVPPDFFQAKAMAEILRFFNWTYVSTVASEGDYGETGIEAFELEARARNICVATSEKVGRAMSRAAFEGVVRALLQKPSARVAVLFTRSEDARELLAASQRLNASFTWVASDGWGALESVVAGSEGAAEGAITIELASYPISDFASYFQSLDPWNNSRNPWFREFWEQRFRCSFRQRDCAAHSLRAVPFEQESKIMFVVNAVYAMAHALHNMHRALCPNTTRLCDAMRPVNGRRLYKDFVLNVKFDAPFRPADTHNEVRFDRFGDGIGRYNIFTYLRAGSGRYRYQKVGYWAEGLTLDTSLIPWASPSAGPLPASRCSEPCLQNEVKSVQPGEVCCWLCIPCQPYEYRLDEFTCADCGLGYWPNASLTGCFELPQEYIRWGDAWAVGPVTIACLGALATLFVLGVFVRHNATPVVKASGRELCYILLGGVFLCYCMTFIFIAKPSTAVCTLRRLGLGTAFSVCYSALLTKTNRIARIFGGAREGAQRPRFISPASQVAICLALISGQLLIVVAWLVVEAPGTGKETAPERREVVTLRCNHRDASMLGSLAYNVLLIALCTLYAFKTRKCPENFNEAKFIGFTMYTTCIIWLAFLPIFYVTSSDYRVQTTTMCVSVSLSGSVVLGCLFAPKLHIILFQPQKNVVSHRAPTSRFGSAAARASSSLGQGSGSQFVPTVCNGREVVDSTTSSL
UniProt P05067, residues 18-770: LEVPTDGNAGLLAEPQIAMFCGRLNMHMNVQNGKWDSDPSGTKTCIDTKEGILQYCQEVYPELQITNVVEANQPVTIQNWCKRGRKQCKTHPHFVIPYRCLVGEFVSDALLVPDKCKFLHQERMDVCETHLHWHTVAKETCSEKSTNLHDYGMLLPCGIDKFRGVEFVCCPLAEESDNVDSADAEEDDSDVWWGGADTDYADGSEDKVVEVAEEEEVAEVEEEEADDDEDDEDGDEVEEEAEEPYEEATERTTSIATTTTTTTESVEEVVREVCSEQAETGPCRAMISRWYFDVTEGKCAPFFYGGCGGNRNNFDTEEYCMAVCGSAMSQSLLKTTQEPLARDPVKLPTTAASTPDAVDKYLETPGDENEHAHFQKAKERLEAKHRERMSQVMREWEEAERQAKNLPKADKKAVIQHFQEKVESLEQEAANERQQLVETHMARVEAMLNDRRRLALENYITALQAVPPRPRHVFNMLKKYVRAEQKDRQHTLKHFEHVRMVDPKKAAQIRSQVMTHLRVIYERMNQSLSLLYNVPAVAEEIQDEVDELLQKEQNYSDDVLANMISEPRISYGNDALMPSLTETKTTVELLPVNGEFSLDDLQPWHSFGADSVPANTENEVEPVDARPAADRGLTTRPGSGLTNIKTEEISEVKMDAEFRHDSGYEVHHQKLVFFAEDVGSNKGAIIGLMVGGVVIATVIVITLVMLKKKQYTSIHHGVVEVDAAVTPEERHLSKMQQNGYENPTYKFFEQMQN

Consider one substance from article PMC11712848.

These are yes or no findings as the source states them, for the method shown. Some entries that bind do so weakly or less than the wild type.

As for APP (from UniProt P05067 18-770), the binding result in assay [1] is listed as “binds”; in assay [2] it was “no binding”.
